Assay results from CN114605541A.
These are yes or no findings as the source states them, for the method shown. Some binding calls cover weakened binding; strength is not graded here.

Amino acid sequences for entries named in this document (tags omitted). Residues count along the entry.
UniProt Q07011, residues 24-186: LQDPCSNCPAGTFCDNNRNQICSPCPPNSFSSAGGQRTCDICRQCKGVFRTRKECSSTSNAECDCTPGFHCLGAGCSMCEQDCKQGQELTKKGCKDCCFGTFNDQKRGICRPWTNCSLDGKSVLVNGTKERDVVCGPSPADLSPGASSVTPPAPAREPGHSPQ

B1: P1-10B (VHH)
VHH: AVQLVESGGGLVQPGGSLRLSCVASGNIFSIRVWSWYRQAPGKQRELVAWFAWDNIAHYTDSAKGRFTISRDNTKKTLYLQMNSLKLEDTAVYYCNSEDSWGQGTQVTVSS
B2: P2-2E (VHH)
VHH: AVQLVESGGGLVQPGGSLRLSCAASGNIFSIRVWSWYRQAPGKQRELVAWFAWDNIAHYTDSVKGRFTISRDNTKKTLYLQMNSLKLEDTAVYYCNSEDSWGQGTQVTVSS
B3: P2-8A (VHH)
VHH: AVQLVESGGGLVQPGGSLRLSCAASGNIFSIRVWSWYRQAPGKQRELVAWFAWDNIAHYTDSAKGRFAISRDNTKKTLYLQMNSLKLEDTAVYYCNSEDSWGQGTQVTVSS
B4: P2-9H (VHH)
VHH: AVQLVESGGGLVQPGGSLRLSCAASGNIFSIRVWSWYRQAPGKQRELVAWFAWDNIAHYTNSAKGRFTISRDNTKKTLYLQMNSLKLEDTAVYYCNSEDSWGQGTQVTVSS
B5: P2-10H (VHH)
VHH: AVQLVESGGGLVQPGGSLRLSCAASGNIFSIRVWSWYRQAPGKQRELVAWFAWDNIAHYTDSAKGRFTISRDNTKKTLYLQMDSLKLEDTAVYYCNSEDSWGQGTQVTVSS
B6: P2-9C (VHH)
VHH: AVQLVESGGGLVQPGGSLRLSCAASGNIFSIRVWSWYRQAPGKQRELVAWFAWDNIAHYTDSAKGRSTISRDNTKKTLYLQMNSLKLEDTAVYYCNSEDSWGQGTQVTVSS
B7: P2-7F (VHH)
VHH: AVQLVESGGGLVQPGGSLRLSCAASGNIFSIRVWSWYRQAPGKQRELVAWFAWDNIAHYTDSAKGRFTISRDNTKKTMYLQMNSLKLEDTAVYYCNSGDSWGQGTQVTVSS
B8: P2-3F (VHH)
VHH: AVQLVESGGGLVQPGGSLRLSCAASGNIFDIRIMSWYRQAPGKQRDLVAWIAWDNVAHYGDSAKGRFTISRDNTKKTWYLQMNSLKLEDTAVYYCNSGDSWGQGTQVTVSS
B9: P1-6H (VHH)
VHH: AVQLVESGGGLVQPGGSLRLSCAASGNIFSIRVMSWYRQAPGKQRELVAWFAWDNIAHYADSAKGRFTISRDNTKKTLYLQMNSLKLEDTAVYYCNSGDSWGPGTQVTVSS
B10: P2-3C (VHH)
VHH: AVQLVESGGGLVQPGGSLRLSCAASGNIFSIRVMSWYRQAPGKQRELVAWIAWDNVVHYGDSAKGRFTMSRDNTKKTAYLQMNSLKLEDTAVYYCNSGDSWGQGTQVTVSS
B11: P1-1G (VHH)
VHH: AVQLVESGGGLVQPGGSLRLSCAASGNIFDIRVISWYRQATGKQRELVAWIAWDNVAHYVDSAKGRFTISRDNTKKTTYLQMNSLKLEDTAVYYCNSGDSWGQGTQVTVSS
B12: P1-8B (VHH)
VHH: AVQLVESGGGLVQPGGSLRLSCAASGNISSIRVISWYRQGPGKQRELVAWIAWDNIAHYVDSAKGRFTISRDNTKKTTYLQMNSLKLEDTDVYYCNSGDSWGQGTQVTVSS
B13: P2-2H (VHH)
VHH: AVQLVESGGGLVQPGGSLRLSCAASGNISSIRVISWYRQGSGKQRELVAWFAWDNVAHYVDSVKGRFTISRDNTKKTTYLQMNSLKLEDTDVYYCNSGDSWGQGTQVTVSS
B14: P2-8G (VHH)
VHH: AVQLVESGGGLVQPGGSLRLSCAASGNIFNIRVRSWYRQAPGKQRELVAWIAWDNVAHYADSAKGRFTISRDNTKKTMYLQMNSLKLEDTAVYYCNSEDSWGQGTQVTVSS
B15: P1-1B (VHH)
VHH: AVQLVESGGGSVQPGGSLRLSCAASGNIFNIHVSAWYRQAPGKQRELVAWIAWDNVAHYADSAKGRFTISRDNTNKTAYLQMNSLNVEDTAVYYCNSGDIWGQGTQVTVSS
B16: P2-4B (VHH)
VHH: AVQLVESGGGLVQPGGSLRLSCAASGNIFSIHVSAWYRQAPGKQRELVAWIAWDNVAHYADSAKGRFTISRDNTKKTTYLQMNSLKLEDTAAYYCNSGDFWGQGTQVTVSS
B17: P1-4F (VHH)
VHH: AVQLVESGGGLVQPGGSLRLSCAAPGNISSLRVIAWYRQGPGKQRELVAWIAWDDIAHYVDSAKGRFAIWRDNTKKTTYLQMNSLKLEDTDVYYCNSGDSWGQGTQVTVSS
B18: P2-11D (VHH)
VHH: AVQLVESGGGLVQSGGSLRLSCAASGNISSLHVIAWYRQGPGKQRELVAWIAWDDIAHYVDSAKGRFAIWRDNTKKTTYLQMNSLKLEDTDVYYCNSGDSWGQGTQVTVSS
B19: P2-12G (VHH)
VHH: AVQLVESGGGLVQPGGSLRLSCAASGNIFSIRVSAWYRQAPGKQRELVAWIAWDNIAHYADSAKGRFTISRDNTKKTAYLQMNSLKLEDTAVYYCNSGDSWGQGTQVTVSS
B20: P2-7D (VHH)
VHH: AVQLVESGGGLVQPGGSLRLSCAASGSIFSIDRMGWYRQAPGKQRELVAMINSSGGTYYLDSVKGRFTISRDNAKIAMYLQMNSLKSEDTAVYYCHYWISHEMNYWGKGTQVTVSS
B21: P1-4B (VHH)
VHH: AVQLVESGGGLVQPGGSLRLSCAASGSIFSINRMGWYRQAPGKQRELVAMINSSGGTYYVDSVKGRFTISRDNAKIAIDLQTNSLKPEDTAVYYCHCWVSHEMNYWGKGTQVTVSS
B22: P1-1E (VHH)
VHH: AVQLVESGGGLVQPGGSLRLSCAASGSIFSIYAMVWYRQAPGKQRDFVASITSGGSTIYADSVKGRFTISRDNAKNTTYLQMNSLKPEDTAVYYCNSLGSWDGERYEYDYWGQGTQVTVSS
B23: P1-12H (VHH)
VHH: AVQLVESGGGLVQPGGSLRLSCAASGSIFSIYAMVWYRQAPGKQRDFVASITSGGSTIYADSVKGRFTISRDNAKNTTYLQMNSLKPEDTAVYHCNSLGSWDGERYEYDYWGQGTQVTVSS
B24: P2-11H (VHH)
VHH: AVQLVESGGGLVQPGGSLRLSCAASGSIFSIYAMAWYRQAPGKQRDFVASITSGGSTIYADSVKGRFTISRDNAKNTTYLQMNSLKPEDTAVYYCNSLGSWDGERYEYDYWGQGTQVTVSS
B25: P2-5A (VHH)
VHH: AVQLVESGGGLVQPGGSLRLSCAASGFTFSSYASSWVRQAPGKGLEWVAGINSDSGRMSYADSVKGRFTISRDNAKNTQYLQMISLKSEDTAVYYCATHSGWSRLDYIRYWGQGTQVTVSS
B26: P2-10F (VHH)
VHH: AVQLVESGGGLVQPGGSLRLSCAASGSIFSIYAMGWYRQAPGKQREVVALITSGGSTVYGDSVKGRFTISRDNAKNTVYLQMNSLKPEDTAVYYCNALGGWENGKYKYDYWGQGTQVTVSS
B27: P1-2F (VHH)
VHH: AVQLVESGGGLVQPGGSVRLSCAASGSIFSSYAVAWYRQAPGKPRELVAVISSEGTTRYADSVKGRFTISRDNAKNTVYLQMNSLKPEDTAVYYCFGGRSSMGTWGQGTQVTVSS
B28: P2-1D (VHH)
VHH: AVQLVESGGGLVQPGGSLRLSCAASGSIFSSYAVAWYRQAPGKPRELVAVISSEGTTRYADSVKGRFTISRDNAKNTVYLQMNSLKPEDTAVYYCFGGRSSMGTWGQGTQVTVSS
B29: P1-1A (VHH)
VHH: AVQLVESGGGLVQPGGSLRLSCAASGNISSLRVIAWYRQGPGKQRELVAWIAWDDIAHYVDSAKGRFAIWRDNTKKTTYLQMNSLKLEDTDVYYCNSGDSWGQGTQVTVSS
B30: P1-1F (VHH)
VHH: AVQLVESGGGLVQPGGSLRLSCAVSGNIFSIRVMSWYRQAPGKQRELVAWFAWDNIAHYADSAKGRFTISRDNTKKTLYLQMNSLKLEDTAVYYCNSGDSWGPGTQVTVSS
B31: P1-7D (VHH)
VHH: AVQLVESGGGLVQPGGSLRLTCAASGDIFSSQPMSWYRQAPGKRRDLVAWIAWDNIAHYTDSAKGRFTISRDNTKKTTWLQMNSLKLEDTAVYYCASGDSWGQGTQVTVSS
B32: P1-1C (VHH)
VHH: AVQLVESGGGLVQPGGSLRLSCAASGNIFSIRVWSWYRQAPGKQRELVAWFAWDNIAHYTDSAKGRFTISRDNTKKTLYLQMNSLKLEDTAVYYCNSEDSWGQGTQVTVSS

These binders were tested against 4-1BB ECD蛋白 (4-1BB extracellular domain, Fc tag cut off with thrombin) (UniProt Q07011) (assay: monoclonal phage ELISA on coated 4-1BB, first and second round (CD28 and BSA as negative controls)).
In the case of B1, the binding is reported as “binds”. In the case of B2, the binding is reported as “binds”. With B3 the binding was “binds”. For B4, the binding was “binds”. B5 was tested, and the binding was “binds”. B6 was tested, and the binding was “binds”. B7 was tested, and the binding was “binds”. B8 was tested, and the binding was “binds”. For B9, the binding was “binds”. B10 was tested, and the binding was “binds”. With B11 the binding was “binds”. With B12 the binding was “binds”. For B13, the binding was “binds”. With B14 the binding was “binds”. In the case of B15, the binding is reported as “binds”. B16 was tested, and the binding was “binds”. B17 was tested, and the binding was “binds”. B18 was tested, and the binding was “binds”. In the case of B19, the binding is reported as “binds”. B20 was tested, and the binding was “binds”. In the case of B21, the binding is reported as “binds”. B22 was tested, and the binding was “binds”. With B23 the binding was “binds”. In the case of B24, the binding is reported as “binds”. In the case of B25, the binding is reported as “binds”. B26 was tested, and the binding was “binds”. For B27, the binding was “binds”. In the case of B28, the binding is reported as “binds”. For B29, the binding was “binds”. In the case of B30, the binding is reported as “binds”. In the case of B31, the binding is reported as “binds”. For B32, the binding was “binds”.
